Measured values taken from patent US7638631B2, “Methylene dipiperidine derivatives” (Glaxo Group Limited, priority 2004, dated 2009).
Some entries share one result that the patent states for a list of compounds.

Amino acid sequences for entries named in this document (tags omitted). A change or cut given only in a name is not applied to a line headed by its entry.
UniProt Q9Y5N1: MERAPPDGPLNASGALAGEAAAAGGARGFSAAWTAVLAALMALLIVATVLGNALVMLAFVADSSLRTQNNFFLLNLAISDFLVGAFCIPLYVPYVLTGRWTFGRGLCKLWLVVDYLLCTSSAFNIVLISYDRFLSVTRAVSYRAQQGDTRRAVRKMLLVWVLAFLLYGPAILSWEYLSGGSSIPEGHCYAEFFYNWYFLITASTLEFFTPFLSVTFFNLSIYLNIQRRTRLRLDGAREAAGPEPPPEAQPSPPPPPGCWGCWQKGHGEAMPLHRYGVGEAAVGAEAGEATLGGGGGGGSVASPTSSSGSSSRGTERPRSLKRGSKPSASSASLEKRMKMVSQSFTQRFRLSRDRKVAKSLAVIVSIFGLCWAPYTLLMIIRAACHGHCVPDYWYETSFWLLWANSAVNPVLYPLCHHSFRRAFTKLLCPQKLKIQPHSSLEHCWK

Biological target: T1, histamine H3 receptor (Homo sapiens, UniProt Q9Y5N1)
T1 construct: expressed in transfected cells; host or cells: CHO K1 cells carrying pSwitch, transfected with pGeneH3, mifepristone-induced; clone 3H3; membranes
Assay: Histamine H3 functional antagonist assay (method B), [35S]-GTPγS SPA on membranes
Format: biochemical
Conditions: membrane from cultured H3 cells, histamine at EC80, averages of a number of experiments
Source text: A membrane preparation containing histamine H3 receptors may be prepared in accordance with the following procedures:
DNA encoding the human histamine H3 gene (Huvar, A. et al. (1999) Mol. Pharmacol. 55(6), 1101-1107) was cloned into a holding vector, pCDNA3.1 TOPO (InVitrogen) and its cDNA was isolated from this vector by restriction digestion of plasmid DNA with the enzymes BamH1 and Not-1 and ligated into the inducible expression vector pGene (InVitrogen) digested with the same enzymes. The GeneSwitch™ system (a system where in transgene expression is switched off in the absence of an inducer and switched on in the presence of an inducer) was performed as described in U.S. Pat. Nos.: 5,364,791; 5,874,534; and 5,935,934. Ligated DNA was transformed into competent DH5α E. coli host bacterial cells and plated onto Luria Broth (LB) agar containing Zeocin™ (an antibiotic which allows the selection of cells expressing the sh ble gene which is present on pGene and pSwitch) at 50 μg ml^−1. Colonies containing the re-ligated plasmid were identified by restriction analysis. DNA for transfection into mammalian cells was prepared from 250 ml cultures of the host bacterium containing the pGeneH3 plasmid and isolated using a DNA preparation kit (Qiagen Midi-Prep) as per manufacturers guidelines (Qiagen). CHO K1 cells previously transfected with the pSwitch regulatory plasmid (InVitrogen) were seeded at 2×10e6 cells per T75 flask in Complete Medium, containing Hams F12 (GIBCOBRL, Life Technologies) medium supplemented with 10% v/v dialysed foetal bovine serum, L-glutamine, and hygromycin (100 μg ml^−1), 24 hours prior to use. Plasmid DNA was transfected into the cells using Lipofectamine plus according to the manufacturers guidelines (InVitrogen). 48 hours post transfection cells were placed into complete medium supplemented with 500 μg ml^−1 Zeocin™.
10-14 days post selection 10 nM Mifepristone (InVitrogen), was added to the culture medium to induce the expression of the receptor. 18 hours post induction cells were detached from the flask using ethylenediamine tetra-acetic acid (EDTA; 1:5000; InVitrogen), following several washes with phosphate buffered saline pH 7.4 and resuspended in Sorting Medium containing Minimum Essential Medium (MEM), without phenol red, and supplemented with Earles salts and 3% Foetal Clone II (Hyclone). Approximately 1×10e7 cells were examined for receptor expression by staining with a rabbit polyclonal antibody, 4a, raised against the N-terminal domain of the histamine H3 receptor, incubated on ice for 60 minutes, followed by two washes in sorting medium. Receptor bound antibody was detected by incubation of the cells for 60 minutes on ice with a goat anti rabbit antibody, conjugated with Alexa 488 fluorescence marker (Molecular Probes). Following two further washes with Sorting Medium, cells were filtered through a 50 μm Filcon™ (BD Biosciences) and then analysed on a FACS Vantage SE Flow Cytometer fitted with an Automatic Cell Deposition Unit. Control cells were non-induced cells treated in a similar manner. Positively stained cells were sorted as single cells into 96-well plates, containing Complete Medium containing 500 μg ml^−1 Zeocin™ and allowed to expand before reanalysis for receptor expression via antibody and ligand binding studies. One clone, 3H3, was selected for membrane preparation.
All steps of the protocol are carried out at 4° C. and with pre-cooled reagents. The cell pellet is resuspended in 10 volumes of homogenisation buffer (50 mM N-2-hydroxyethylpiperazine-N′-2-ethanesulfonic acid (HEPES), 1 mM ethylenediamine tetra-acetic acid (EDTA), pH 7.4 with KOH, supplemented with 10e-6M leupeptin (acetyl-leucyl-leucyl-arginal; Sigma L2884), 25 μg/ml bacitracin (Sigma B0125), 1 mM phenylmethylsulfonyl fluoride (PMSF) and 2×10e-6M pepstain A (Sigma)). The cells are then homogenised by 2×15 second bursts in a 1 liter glass Waring blender, followed by centrifugation at 500 g for 20 minutes. […]

Functional pKi (fpKi), histamine H3 functional antagonist assay (method B), ≥ 8:
CC(=O)c1ccc(N2CCC(CC3CCN(CC4CC4)CC3)CC2)cc1 [Example E28]
Cc1noc(-c2ccc(N3CCC(CC4CCN(C(C)C)CC4)CC3)cc2F)n1 [Example E16, 1-[3-fluoro-4-(3-methyl-1,2,4-oxadiazol-5-yl)phenyl]-4-{[1-(1-methylethyl)-4-piperidinyl]methyl}piperidine]
CC(=O)c1ccc(N2CCC(CC3CCN(C4CCC4)CC3)CC2)nc1 [Example E29]
O=C(c1ccc(N2CCC(CC3CCN(C4CCC4)CC3)CC2)cc1)C(F)(F)F [Example E31]
Cc1noc(-c2ccc(N3CCC(CC4CCN(CC5CC5)CC4)CC3)cc2)n1 [Example E19]
FC(F)(F)c1ncc(N2CCC(CC3CCN(C4CCC4)CC3)CC2)cn1 [Example E35, 5-{4-[(1-Cyclobutyl-4-piperidinyl)methyl]-1-piperidinyl}-2-(trifluoromethyl)pyrimidine]
FC(F)(F)c1ccc(N2CCC(CC3CCN(C4CCC4)CC3)CC2)nn1 [Example E34]
CCN1CCC(CC2CCN(c3ccc(-c4nc(C)no4)cc3)CC2)CC1 [Example E18]
CC(=O)c1ccc(N2CCC(CC3CCN(C4CCC4)CC3)CC2)cc1 [Example E25, 1-(4-{4-[(1-Cyclobutyl-4-piperidinyl)methyl]-1-piperidinyl}phenyl)ethanone]
CC(=O)c1ccc(N2CCC(CC3CCN(C(C)C)CC3)CC2)cc1 [Example E26]
Cc1noc(-c2ccc(N3CCC(CC4CCN(C)CC4)CC3)cc2)n1 [Example E20]
Cc1noc(-c2ccc(N3CCC(CC4CCN(C(C)C)CC4)CC3)cn2)n1 [Example E15, 5-(4-{[1-(1-Methylethyl)-4-piperidinyl]methyl}-1-piperidinyl)-2-(3-methyl-1,2,4-oxadiazol-5-yl)pyridine]
CC(=O)c1ccc(N2CCC(CC3CCN(C(C)C)CC3)CC2)nc1 [Example E30]
CC(=O)c1ccc(N2CCC(CC3CCN(C)CC3)CC2)cc1 [Example E32]
N#Cc1ccc(N2CCC(CC3CCN(C4CCC4)CC3)CC2)cn1 [Example E22, 5-{4-[(1-Cyclobutyl-4-piperidinyl)methyl]-1-piperidinyl}-2-pyridinecarbonitrile]
CC(C)N1CCC(CC2CCN(c3ccc(C(F)(F)F)nn3)CC2)CC1 [Example E33]
Cc1noc(-c2ccc(N3CCC(CC4CCN(C5CCC5)CC4)CC3)cn2)n1 [Example E17, 5-{4-[(1-cyclobutyl-4-piperidinyl)methyl]-1-piperidinyl}-2-(3-methyl-1,2,4-oxadiazol-5-yl)pyridine]
CC(C)N1CCC(CC2CCN(c3ccc(C#N)nc3)CC2)CC1 [Example E21, 5-(4-{[1-(1-Methylethyl)-4-piperidinyl]methyl}-1-piperidinyl)-2-pyridinecarbonitrile]
CCN1CCC(CC2CCN(c3ccc(C(C)=O)cc3)CC2)CC1 [Example E27]
CC(=O)c1ccc(N2CCC(CC3CCN(C4CCC4)CC3)CC2)cn1 [Example E24, 1-(5-{4-[(1-Cyclobutyl-4-piperidinyl)methyl]-1-piperidinyl}-2-pyridinyl)ethanone]
CC(=O)c1ccc(N2CCC(CC3CCN(C(C)C)CC3)CC2)cn1 [Example E23, 1-{[5-(4-[1-(1-Methylethyl)-4-piperidinyl]methyl}-1-piperidinyl)-2-pyridinyl]ethanone]
